Some of the results follow.

By UniProt entry, the sequences of proteins in these tests, tags left out. Where a name states a change or a piece, a line headed by the entry shows the natural chain unless it says otherwise.
UniProt Q96DX7: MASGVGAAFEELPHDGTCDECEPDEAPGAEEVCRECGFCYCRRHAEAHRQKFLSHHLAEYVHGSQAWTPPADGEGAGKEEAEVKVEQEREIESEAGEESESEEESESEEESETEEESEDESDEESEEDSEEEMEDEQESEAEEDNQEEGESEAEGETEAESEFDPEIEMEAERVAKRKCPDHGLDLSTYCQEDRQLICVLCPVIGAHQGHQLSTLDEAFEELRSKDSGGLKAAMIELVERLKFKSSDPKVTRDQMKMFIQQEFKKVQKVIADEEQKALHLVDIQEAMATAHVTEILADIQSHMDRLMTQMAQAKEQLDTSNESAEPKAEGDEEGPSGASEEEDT
UniProt Q8N5M4: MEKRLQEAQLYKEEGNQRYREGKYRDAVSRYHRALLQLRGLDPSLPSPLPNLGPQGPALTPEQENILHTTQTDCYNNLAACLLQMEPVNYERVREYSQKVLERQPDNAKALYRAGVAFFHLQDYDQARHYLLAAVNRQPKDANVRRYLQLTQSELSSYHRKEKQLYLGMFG
UniProt Q7Z4G4: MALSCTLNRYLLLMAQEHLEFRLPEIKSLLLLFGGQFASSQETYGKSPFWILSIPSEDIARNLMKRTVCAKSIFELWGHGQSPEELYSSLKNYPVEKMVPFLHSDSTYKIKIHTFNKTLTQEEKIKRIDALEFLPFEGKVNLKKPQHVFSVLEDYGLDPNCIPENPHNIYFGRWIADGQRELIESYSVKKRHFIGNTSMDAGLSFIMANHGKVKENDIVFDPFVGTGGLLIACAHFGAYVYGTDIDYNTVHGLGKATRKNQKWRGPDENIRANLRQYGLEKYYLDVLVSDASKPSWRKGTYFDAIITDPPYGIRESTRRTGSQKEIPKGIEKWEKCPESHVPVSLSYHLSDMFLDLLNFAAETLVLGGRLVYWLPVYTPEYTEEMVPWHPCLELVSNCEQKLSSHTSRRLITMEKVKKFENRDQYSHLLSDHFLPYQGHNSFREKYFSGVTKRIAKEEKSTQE
UniProt Q86SZ2: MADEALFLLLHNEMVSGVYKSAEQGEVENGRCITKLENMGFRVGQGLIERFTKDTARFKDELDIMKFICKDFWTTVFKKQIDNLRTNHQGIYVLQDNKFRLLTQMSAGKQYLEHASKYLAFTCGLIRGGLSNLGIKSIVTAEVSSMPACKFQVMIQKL
UniProt Q8TBZ6: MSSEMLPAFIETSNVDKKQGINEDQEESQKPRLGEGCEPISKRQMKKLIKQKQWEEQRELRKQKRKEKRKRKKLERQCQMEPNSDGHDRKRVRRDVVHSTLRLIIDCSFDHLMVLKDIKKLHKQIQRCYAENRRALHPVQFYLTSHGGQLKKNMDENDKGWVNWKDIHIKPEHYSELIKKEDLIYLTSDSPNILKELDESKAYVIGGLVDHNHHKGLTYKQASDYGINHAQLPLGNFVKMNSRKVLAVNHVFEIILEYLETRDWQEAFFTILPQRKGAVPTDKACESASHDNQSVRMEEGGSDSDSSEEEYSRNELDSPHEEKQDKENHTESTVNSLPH
UniProt Q96Q05, whole entry, looked up: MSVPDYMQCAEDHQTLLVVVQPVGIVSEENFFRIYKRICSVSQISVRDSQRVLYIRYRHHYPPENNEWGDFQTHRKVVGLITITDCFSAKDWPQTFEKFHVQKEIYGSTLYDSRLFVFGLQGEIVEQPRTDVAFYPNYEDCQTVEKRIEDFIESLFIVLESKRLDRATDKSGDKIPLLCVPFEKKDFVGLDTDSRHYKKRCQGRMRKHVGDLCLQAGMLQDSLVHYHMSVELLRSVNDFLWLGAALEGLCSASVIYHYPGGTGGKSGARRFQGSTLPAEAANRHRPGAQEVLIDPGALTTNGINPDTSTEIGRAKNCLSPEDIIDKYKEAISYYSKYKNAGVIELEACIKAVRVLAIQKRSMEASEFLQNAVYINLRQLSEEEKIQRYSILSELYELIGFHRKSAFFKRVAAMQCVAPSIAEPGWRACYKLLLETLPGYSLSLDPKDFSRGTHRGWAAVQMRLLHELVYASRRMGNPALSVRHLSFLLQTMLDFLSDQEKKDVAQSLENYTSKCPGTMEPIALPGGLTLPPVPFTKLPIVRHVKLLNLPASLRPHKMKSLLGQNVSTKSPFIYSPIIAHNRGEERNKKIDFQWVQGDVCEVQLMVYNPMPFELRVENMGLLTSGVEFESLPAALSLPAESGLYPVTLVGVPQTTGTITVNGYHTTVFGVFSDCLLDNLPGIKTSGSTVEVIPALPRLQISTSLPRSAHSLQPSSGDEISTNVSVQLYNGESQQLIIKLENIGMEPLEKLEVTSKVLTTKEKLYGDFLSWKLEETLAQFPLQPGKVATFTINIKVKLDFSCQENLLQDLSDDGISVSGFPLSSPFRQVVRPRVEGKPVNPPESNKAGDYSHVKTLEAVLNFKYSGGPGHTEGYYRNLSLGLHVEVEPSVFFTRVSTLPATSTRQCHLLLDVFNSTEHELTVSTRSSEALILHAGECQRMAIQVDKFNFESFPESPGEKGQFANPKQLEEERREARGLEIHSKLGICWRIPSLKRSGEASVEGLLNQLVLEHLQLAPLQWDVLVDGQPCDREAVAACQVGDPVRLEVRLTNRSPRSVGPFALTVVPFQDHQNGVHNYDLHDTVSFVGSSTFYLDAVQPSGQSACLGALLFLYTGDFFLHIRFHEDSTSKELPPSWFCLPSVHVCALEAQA
UniProt Q86TV6: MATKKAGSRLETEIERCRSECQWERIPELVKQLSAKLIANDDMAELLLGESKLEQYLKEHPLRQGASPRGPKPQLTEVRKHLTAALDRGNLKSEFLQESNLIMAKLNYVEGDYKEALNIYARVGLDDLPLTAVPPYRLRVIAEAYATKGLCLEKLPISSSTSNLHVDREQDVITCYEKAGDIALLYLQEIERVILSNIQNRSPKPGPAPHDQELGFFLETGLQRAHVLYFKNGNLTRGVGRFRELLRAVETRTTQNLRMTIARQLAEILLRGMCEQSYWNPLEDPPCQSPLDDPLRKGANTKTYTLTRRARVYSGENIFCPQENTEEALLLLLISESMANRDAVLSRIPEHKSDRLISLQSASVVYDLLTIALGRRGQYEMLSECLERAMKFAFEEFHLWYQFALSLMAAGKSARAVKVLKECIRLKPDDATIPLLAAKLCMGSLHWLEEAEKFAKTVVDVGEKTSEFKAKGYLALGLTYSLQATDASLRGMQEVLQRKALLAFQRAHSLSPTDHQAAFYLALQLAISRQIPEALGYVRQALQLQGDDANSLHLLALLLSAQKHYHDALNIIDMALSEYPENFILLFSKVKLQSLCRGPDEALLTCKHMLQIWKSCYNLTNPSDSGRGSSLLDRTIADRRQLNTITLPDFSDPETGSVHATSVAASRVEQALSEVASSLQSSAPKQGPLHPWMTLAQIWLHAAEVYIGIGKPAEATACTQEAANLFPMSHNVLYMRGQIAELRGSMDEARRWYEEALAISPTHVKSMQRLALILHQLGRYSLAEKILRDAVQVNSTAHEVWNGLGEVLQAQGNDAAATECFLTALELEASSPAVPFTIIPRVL
UniProt P30536, whole entry, looked up: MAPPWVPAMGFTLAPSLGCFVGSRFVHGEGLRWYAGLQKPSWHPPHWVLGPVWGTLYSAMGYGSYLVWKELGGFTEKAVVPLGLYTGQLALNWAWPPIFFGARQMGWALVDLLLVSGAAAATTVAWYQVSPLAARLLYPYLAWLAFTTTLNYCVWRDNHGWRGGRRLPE
UniProt O75865, whole entry, looked up: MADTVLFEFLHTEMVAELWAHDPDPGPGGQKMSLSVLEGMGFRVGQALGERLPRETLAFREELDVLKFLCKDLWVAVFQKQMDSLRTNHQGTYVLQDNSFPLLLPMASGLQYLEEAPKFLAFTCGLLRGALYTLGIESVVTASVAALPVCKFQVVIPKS
UniProt Q15714: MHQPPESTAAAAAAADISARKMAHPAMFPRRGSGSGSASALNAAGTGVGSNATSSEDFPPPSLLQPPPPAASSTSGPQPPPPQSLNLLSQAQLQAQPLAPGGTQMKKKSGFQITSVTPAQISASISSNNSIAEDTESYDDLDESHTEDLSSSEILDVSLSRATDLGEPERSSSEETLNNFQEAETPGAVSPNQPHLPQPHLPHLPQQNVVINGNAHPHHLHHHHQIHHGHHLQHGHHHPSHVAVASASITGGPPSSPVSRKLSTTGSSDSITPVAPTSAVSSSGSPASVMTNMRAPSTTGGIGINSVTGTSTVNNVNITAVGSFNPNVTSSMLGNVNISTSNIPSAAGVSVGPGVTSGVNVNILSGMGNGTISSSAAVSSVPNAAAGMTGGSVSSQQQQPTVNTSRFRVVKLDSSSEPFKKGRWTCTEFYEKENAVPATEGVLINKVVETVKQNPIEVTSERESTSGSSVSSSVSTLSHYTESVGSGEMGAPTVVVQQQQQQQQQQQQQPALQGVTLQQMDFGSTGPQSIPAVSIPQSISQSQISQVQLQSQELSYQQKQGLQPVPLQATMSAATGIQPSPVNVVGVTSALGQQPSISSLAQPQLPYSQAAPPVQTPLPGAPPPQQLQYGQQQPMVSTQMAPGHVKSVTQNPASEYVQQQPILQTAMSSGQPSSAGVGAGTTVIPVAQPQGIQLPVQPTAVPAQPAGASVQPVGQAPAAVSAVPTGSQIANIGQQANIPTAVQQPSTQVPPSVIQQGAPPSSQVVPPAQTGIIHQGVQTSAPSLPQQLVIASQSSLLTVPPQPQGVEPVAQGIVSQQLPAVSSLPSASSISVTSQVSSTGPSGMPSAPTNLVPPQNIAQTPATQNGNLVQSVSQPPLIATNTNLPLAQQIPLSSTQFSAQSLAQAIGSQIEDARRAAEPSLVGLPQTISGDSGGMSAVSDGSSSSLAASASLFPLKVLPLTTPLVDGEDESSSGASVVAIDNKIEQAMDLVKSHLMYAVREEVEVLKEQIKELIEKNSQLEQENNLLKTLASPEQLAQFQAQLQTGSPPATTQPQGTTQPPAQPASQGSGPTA
UniProt P43897: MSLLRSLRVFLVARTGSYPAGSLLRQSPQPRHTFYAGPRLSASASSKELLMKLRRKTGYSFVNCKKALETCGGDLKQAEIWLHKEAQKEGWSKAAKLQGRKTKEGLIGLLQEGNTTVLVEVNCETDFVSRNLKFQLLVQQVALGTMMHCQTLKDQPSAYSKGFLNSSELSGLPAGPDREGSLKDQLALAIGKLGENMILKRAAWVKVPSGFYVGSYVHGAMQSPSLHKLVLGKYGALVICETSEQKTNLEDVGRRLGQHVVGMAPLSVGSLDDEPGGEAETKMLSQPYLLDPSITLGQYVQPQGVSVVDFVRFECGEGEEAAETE
UniProt Q9NX07: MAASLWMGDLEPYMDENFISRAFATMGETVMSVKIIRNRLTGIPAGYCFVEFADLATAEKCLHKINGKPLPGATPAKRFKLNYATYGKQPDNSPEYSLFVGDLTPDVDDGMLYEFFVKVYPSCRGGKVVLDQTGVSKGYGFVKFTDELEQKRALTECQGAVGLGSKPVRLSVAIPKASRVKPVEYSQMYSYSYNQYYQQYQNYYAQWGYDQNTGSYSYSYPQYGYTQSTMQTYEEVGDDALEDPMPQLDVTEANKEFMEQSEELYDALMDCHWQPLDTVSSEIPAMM
UniProt Q9UJA5: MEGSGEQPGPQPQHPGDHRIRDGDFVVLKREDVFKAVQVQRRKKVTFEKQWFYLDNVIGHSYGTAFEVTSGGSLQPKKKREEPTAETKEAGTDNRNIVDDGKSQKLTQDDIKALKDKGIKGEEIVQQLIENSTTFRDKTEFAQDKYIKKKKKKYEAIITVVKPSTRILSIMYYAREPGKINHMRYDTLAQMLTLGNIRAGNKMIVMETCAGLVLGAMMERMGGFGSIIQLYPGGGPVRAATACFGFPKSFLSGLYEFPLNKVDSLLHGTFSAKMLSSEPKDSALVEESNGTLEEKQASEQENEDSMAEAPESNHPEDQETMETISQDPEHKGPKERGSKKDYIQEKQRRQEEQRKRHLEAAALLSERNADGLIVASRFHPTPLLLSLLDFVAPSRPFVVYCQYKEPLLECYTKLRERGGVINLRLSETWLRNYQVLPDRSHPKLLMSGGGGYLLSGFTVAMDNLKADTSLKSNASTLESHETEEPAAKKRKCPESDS
UniProt Q96F44: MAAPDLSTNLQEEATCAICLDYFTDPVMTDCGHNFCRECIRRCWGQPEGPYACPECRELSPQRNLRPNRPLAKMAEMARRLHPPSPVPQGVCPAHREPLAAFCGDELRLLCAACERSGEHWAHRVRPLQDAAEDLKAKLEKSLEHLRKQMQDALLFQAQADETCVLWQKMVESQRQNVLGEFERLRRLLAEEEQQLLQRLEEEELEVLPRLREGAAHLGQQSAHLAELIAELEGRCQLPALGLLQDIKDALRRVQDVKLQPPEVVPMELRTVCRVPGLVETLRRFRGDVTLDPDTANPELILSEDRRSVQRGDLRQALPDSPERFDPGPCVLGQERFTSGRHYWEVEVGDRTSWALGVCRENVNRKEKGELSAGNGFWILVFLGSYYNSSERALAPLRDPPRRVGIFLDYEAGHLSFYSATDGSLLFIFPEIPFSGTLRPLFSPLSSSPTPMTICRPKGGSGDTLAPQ

In the supplement of paper PMC10849652 one finds log2 fold change data, which are given here for 23 targets.

Compound in the assay: C1=CC=C(C=C1)C2=NC(=C(N2)C3=CC=NC=C3)C4=CC(=C(C=C4)Cl)O
Briefly: log2 fold change, soluble protein after heating vs DMSO (PISA); higher = thermal stabilisation; K562 lysate, 10 uM; active = over 0.2 and 3.5 SD of the protein, either way, in both replicates (recomputed). The method in brief:
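Pellets of K562 cells were dounce-homogenised in PBS pH 7.4 with 1 mM MgCl2, and the crude extract was held at 1 mg/mL protein for a 30 min treatment with 10 μM compound. Aliquots were heated for 3 min over 48°C-58°C and pooled before NP-40 was added to 0.5% at 4°C. The supernatant from 21,000xg for 90 min was quantified by TMTpro 16plex LC-MS/MS with channel sums equalised. Values are reported from duplicates as log-two fold change in thermal stability relative to solvent controls.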
As for TSSC4 (UniProt Q9Y5U2), the log2 fold change was inactive: -0.015.

On to TRIM44 (UniProt Q96DX7), for which the log2 fold change is inactive: -0.013.

Consider TRMT12 (UniProt Q53H54), for which the log2 fold change was inactive: 0.106.

With TTC9C (UniProt Q8N5M4), the log2 fold change was inactive: 0.005. In the case of TRMT11 (UniProt Q7Z4G4) it was inactive: -0.015; in that of TRAPPC6B (UniProt Q86SZ2), inactive: 0.006; in that of TRIM38 (UniProt O00635), inactive: 0.008.

As to TRMT10A (UniProt Q8TBZ6), the log2 fold change is inactive: 0.018.

For the target TSN (UniProt Q15631), the log2 fold change is inactive: -0.004. On to TRAPPC9 isoform 2 (UniProt Q96Q05), for which the log2 fold change was inactive: -0.012. To TTLL12 (UniProt V9GY16) belongs inactive: -0.061; to TTC7B isoform 2 (UniProt Q86TV6), inactive: -0.005. To TSPO (UniProt P30536) belongs inactive: 0.002; to TRAPPC6A isoform 2 (UniProt O75865), inactive: -0.016. To TTC27 (UniProt Q6P3X3) belongs inactive: -0.014. Take TSC22D1 (UniProt Q15714): the log2 fold change is inactive: 0.013. In the case of TSFM (UniProt P43897) it was inactive: 0.017; in that of TRNAU1AP (UniProt Q9NX07), inactive: -0.028; in that of TRIM4 (UniProt Q9C037), inactive: 0.083. To TRMT6 (UniProt Q9UJA5) belongs inactive: -0.008; to TRMT1L (UniProt Q7Z2T5), inactive: -0.005. For TRIM11 (UniProt Q96F44), the log2 fold change is inactive: -0.018.

As for TRPC4AP (UniProt Q8TEL6), the log2 fold change was inactive: -0.004.
